The values that follow come from PubChem BioAssay AID493014 (National Center for Advancing Translational Sciences (NCATS), 2011).

The test is described as follows: qHTS Assay to Find Inhibitors of Chronic Active B-Cell Receptor Signaling. Particulars: ABC-DLBCL IkBa-CBG/CBR reporter, luminescence ratio (green luciferase fused to IkBa over red control in TMD8 lymphoma cells), 4 h. Summed up: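 Compounds up to 46 uM were incubated four hours with TMD8 cells whose green CBG68 luciferase is fused to IkappaBalpha; red CBR luminescence normalised the signal, and concentration-effect curves were fitted to fusion, red and ratio data.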

[1] abbreviates: measured here: CBR red luminescence, cell number.
Setting [2] is: measured here: IkBa-CBG green luminescence.

The other results are listed elsewhere or left out. The main result of the screen is listed elsewhere. These columns were measured beside it and carry no call. Most of these compounds were active or inconclusive in the main read-out, so they are no random draw. The note in brackets gives the kind of curve behind each potency; many fits are weak.

Regarding `COCc1ccc(-c2c(-c3ccc(OC)cc3)oc(=O)c3cc(OC)c(OC)cc23)cc1`, under setting [1], the AC50 was 3.26 µM [rising, full curve]. For the compound `CC(C)C1=CC(=Nc2ccc(S(N)(=O)=O)cc2)C=C(C(C)C)C1=O`, the AC50 under setting [2] was 17.8 µM [falling, single point].

Consider `COC(=O)c1sc(-c2cccs2)cc1NC(=O)/C=C/C(=O)O`, for which the AC50 under setting [1] was 10 µM [falling, partial curve, poor fit]. Take `CC(=O)c1noc(C)c1C(=O)Nc1nccs1`: the AC50 under setting [1] is 0.58 µM [falling, full curve, poor fit].

For the compound `CCOC(=O)C1=C(CNCCc2ccc(Cl)cc2)NC(=O)NC1c1ccc2c(c1)OCO2` (centres undefined), the concentration at half-maximal activity (AC50) under setting [1] was 25.9 µM [falling, single point].

For `O=C1c2ccccc2-c2nnc(-c3ccc(O)cc3)cc21`, the concentration at half-maximal activity (AC50) under setting [1] is 6.31 µM [falling, partial curve]. In the case of `COc1cc(OC)c2c(-c3cccc(/C=C/c4ccc(F)cc4)c3)cc(=O)oc2c1`, the half-maximal activity concentration (AC50) under setting [1] was 5.8 µM [rising, full curve]. On to `Cc1cc(O)c(-c2cc(O)c(C)cc2O)cc1O`, for which the AC50 under setting [1] is 15.8 µM [falling, single point].

Turning to `C/C(Cn1nnc([N+](=O)[O-])n1)=N\NC(=O)c1ccccc1O`, under setting [1], the AC50 was 2.51 µM [falling, partial curve]. Turning to `O=C(OCCOc1cccc(Cl)c1)c1ccc2ncsc2c1`, the AC50 under setting [1] is 12.6 µM [falling, partial curve]. As to `CCN(CC)CCn1c2c(c(SCC(=O)Nc3ccc4c(c3)OCCO4)nc1=O)CCCC2`, the concentration at half-maximal activity (AC50) under setting [1] is 16.4 µM [falling, single point]. For `C/C(=N\NC(=O)c1ccc(CSc2nncn2C)cc1)c1ccc2ccccc2c1`, under setting [1], the AC50 was 4.11 µM [rising, full curve, poor fit].

In the case of `COc1ccc(N2CCN(C(=O)CCCN3C(=O)c4cccc5cccc(c45)C3=O)CC2)cc1`, the AC50 under setting [1] was 8.91 µM [rising, partial curve]. Same read-out and setting: in the case of `CC(=O)Nc1cccc(-c2nc3ccccc3c(=O)o2)c1` it was 10.3 µM [falling, partial curve]; in that of `CCn1nc(C)c(C(=O)Nc2cc(Oc3cc(C)cc(C)c3)cc([N+](=O)[O-])c2)c1C`, 35.5 µM [falling, single point]; in that of `Cc1ccc(CSc2ncnc3onc(C)c23)cc1`, 22.4 µM [rising, single point]. Still for that read-out and setting: in the case of `Cc1nc(NCCc2ccc(F)cc2)c2nnn(Cc3ccccc3)c2n1` it was 7.08 µM [falling, partial curve, poor fit]; in that of `O=C1CCCC(O)=C1N=Nc1c(Cl)cc(Cl)cc1Cl`, 20.6 µM [rising, partial curve, poor fit]. As for `O=C(CNC(=O)c1ccco1)OCc1cccc(Cl)c1`, the AC50 under setting [1] was 14.1 µM [rising, partial curve, poor fit]. On to `CCOC(=O)C(=Cc1c[nH]c2ccc(S(=O)(=O)N(C)C)cc12)C(=O)OCC`, for which, under setting [1], the concentration at half-maximal activity (AC50) is 8.91 µM [falling, partial curve]. With `CCCCCCn1c(=O)[nH]c2nc3cc(N)ccc3nc2c1=O`, the AC50 under setting [1] was 16.4 µM [falling, single point]. For the compound `CCc1c(C)nc(SCC(=O)NNC(=O)Cc2ccc(OC)cc2)[nH]c1=O`, the AC50 under setting [1] is 11.2 µM [falling, single point]. On the same count and under the same terms, for `O=C(NN1C(=O)C2C3C=CC(C4CC34)C2C1=O)c1ccccc1Cl` (centres undefined) the value was 18.4 µM [falling, single point]; for `CN(C)N1C(N)=C(C#N)C(c2cccc(Cl)c2)C2=C1CCCC2=O` (centres undefined), 12.6 µM [falling, partial curve]; for `CC1(C)C2CC=C(/C=N/NC(=O)c3ccc(O)cc3)C1C2` (centres undefined), 9.2 µM [falling, partial curve].

On to `CCOc1ccc(S(=O)(=O)N(CC(=O)NN=C2CCN(C)CC2)c2ccc(C)cc2)cc1`, for which the concentration at half-maximal activity (AC50) runs as follows: under setting [1], 17.8 µM [rising, single point]; under setting [2], 35.5 µM [falling, partial curve, poor fit]. As for `Cc1nn(-c2ccccc2)c(Cl)c1/C=N\NC(=O)c1cncc(Br)c1`, the half-maximal activity concentration (AC50) under setting [1] is 0.58 µM [falling, full curve, poor fit]. Consider `CCCc1noc2c1/C(=N\O)CCC2`, for which the half-maximal activity concentration (AC50) under setting [1] was 12.6 µM [rising, partial curve]. Turning to `c1ccc(-c2c3ccccc3nc3[nH]c4ccccc4c23)cc1`, under setting [2], the concentration at half-maximal activity (AC50) is 0.231 µM [rising, full curve, poor fit]. For `Cc1ccc(C2C3=C(CCCC3=O)N=C3c4ccccc4C(=O)C32)cc1` (centres undefined), the half-maximal activity concentration (AC50) under setting [1] was 3.66 µM [rising, partial curve, poor fit]. The same measure, in the same setting: in the case of `CN(c1ccccc1)c1ccc(/C=N/N2CCOCC2)cc1` it was 16.4 µM [rising, partial curve, poor fit].

For the compound `COc1ccc(NC(=O)Cn2nnc(C(N)=O)c2N)c(OC)c1`, under setting [1], the AC50 is 10 µM [falling, partial curve, poor fit]. Take `Cc1ccc(-n2ncc(Cl)c2C(=O)NCc2ccccc2)cc1`: the AC50 under setting [1] is 0.501 µM [rising, full curve, poor fit]. Still for that read-out and setting: for `O=C(N/N=C/c1ccc[nH]1)c1cc(-c2cccs2)nc2ccccc12` the value was 35.5 µM [rising, single point]; for `COc1ccc(C(=O)C[n+]2cn(C(F)F)c3ccccc32)c(F)c1`, 25.1 µM [falling, single point].

Regarding `C=CCn1c(NCc2ccc3c(c2)OCO3)nc2ccccc21`, the AC50 under setting [1] is 0.398 µM [falling, full curve]. For `Cc1nc2ccc(-c3ccccc3)cc2o1`, the AC50 under setting [1] was 7.94 µM [rising, partial curve, poor fit]. Take `CC(C)(C)OC(=O)N1CCC[C@H]1c1nnc(SCc2c(Cl)cccc2Cl)o1`: under setting [1], the half-maximal activity concentration (AC50) is 4.47 µM [rising, full curve]. Turning to `CC1=CC(=O)C(C(C)C)=C/C1=N/OC(=O)c1cccc([N+](=O)[O-])c1`, the AC50 under setting [1] is 9.2 µM [falling, partial curve, poor fit]. The same measure, in the same setting: for `CCOc1ccc(CCNC(=O)c2ccc3c(c2)N(Cc2cccc(Cl)c2)C(=O)c2ccccc2S3(=O)=O)cc1OCC` the value was 17.8 µM [rising, single point]. For `Cn1cc([N+](=O)[O-])c(C(=O)Nc2nccs2)n1`, the AC50 under setting [1] is 8.91 µM [falling, partial curve, poor fit].

Consider `CCCNC(=O)OC[C@H]1O[C@H](CCO/N=C(\C)CCN2CCc3nc(-c4ccccc4)c(-c4ccccc4)cc3C2)C=C[C@@H]1Oc1ccc(OC)cc1`, for which the half-maximal activity concentration (AC50) under setting [1] is 0.461 µM [rising, full curve, poor fit].

On to `Cc1ccc(C(c2nnnn2C(C)(C)C)N2CCc3ccccc3C2)cc1` (centres undefined), for which, under setting [1], the AC50 was 29.1 µM [falling, partial curve, poor fit]. With `CC(C)(C)c1ccc(C(=O)Nc2ccc([N+](=O)[O-])cn2)cc1`, under setting [1], the half-maximal activity concentration (AC50) was 2.31 µM [rising, partial curve, poor fit]. Still for that read-out and setting: for `CC(C)c1nnc(NC(=O)c2nc(S(=O)(=O)Cc3ccccc3)ncc2Cl)s1` the value was 35.5 µM [falling, single point]; for `NS(=O)(=O)c1cccc(NC(=O)COc2ncnc3c2cnn3-c2ccccc2)c1`, 12.6 µM [falling, single point]. For `COc1cccc(-c2ccnc3[nH]n(-c4ccccc4)c(=O)c23)c1`, the half-maximal activity concentration (AC50) under setting [1] was 2.82 µM [falling, full curve, poor fit]. With `CCOC(=O)c1[nH]c2c(c1C)C(=O)CC(c1ccc(F)cc1)C2` (centres undefined), the concentration at half-maximal activity (AC50) is 7.31 µM [rising, partial curve, poor fit] under setting [1] and 6.51 µM [falling, partial curve] under setting [2]. Consider `Cc1ccc(CNC(=O)CN2CCCC(C)C2)cc1` (centres undefined), for which the concentration at half-maximal activity (AC50) under setting [1] was 6.51 µM [rising, partial curve, poor fit].

For the compound `Cc1cccc(N(Cc2cc3ccccc3[nH]c2=O)S(C)(=O)=O)c1`, under setting [1], the concentration at half-maximal activity (AC50) is 35.5 µM [falling, single point].

For the compound `C=CCn1c(CCNC(=O)c2cccs2)nnc1SCC(=O)Nc1cccc(F)c1`, the AC50 under setting [1] is 2.06 µM [rising, partial curve, poor fit].

Regarding `CC(C)CC(/C(O)=C(\C#N)c1nc2ccccc2[nH]1)N1C(=O)c2ccccc2C1=O` (centres undefined), the AC50 under setting [1] was 20.6 µM [falling, partial curve, poor fit]. As for `Cc1ccc(NC(=S)NCCC2=CCCCC2)cc1`, the concentration at half-maximal activity (AC50) under setting [1] was 4.47 µM [rising, full curve, poor fit].

Regarding `CCOC(=O)C(=O)Nc1ccccc1C(=O)Nc1ccc(OC)cc1`, under setting [1], the AC50 was 29.1 µM [falling, single point]. On the same count and under the same terms, for `NC(=O)[C@H]1CC2(CC(c3cccc(NC(=O)COc4ccc(Cl)cc4)c3)=NO2)CN1C(=O)Cc1ccc([N+](=O)[O-])cc1` (some centres undefined) the value was 10 µM [falling, partial curve, poor fit]. In the case of `Cc1cc(C)c2cc(CN(CCN3CCCC3)C(=O)Nc3ccc(F)cc3)c(=O)[nH]c2c1`, under setting [1], the AC50 was 22.4 µM [falling, single point]. Same read-out and setting: in the case of `Cc1cccc(Nc2nc(-c3c(C)nc4ccccn34)cs2)c1` it was 15.8 µM [falling, partial curve, poor fit]; in that of `O=C(COc1ccc2ccccc2c1)Nc1ccccc1C(=O)O`, 0.316 µM [falling, full curve].

For `COc1ccc(CC(=O)Nc2cc(NC(=O)Cc3ccc(OC)c(OC)c3)cc(C(=O)O)c2)cc1OC`, the AC50 under setting [1] was 22.4 µM [rising, partial curve, poor fit]. Turning to `O=C(Cn1cc(SCc2ccc(F)cc2)c2ccccc21)N1CCOCC1`, the AC50 under setting [1] was 25.9 µM [falling, single point]. On the same count and under the same terms, for `O=C(N/C=C/c1ccco1)Nc1cccc(Cl)c1` the value was 0.708 µM [rising, full curve, poor fit]; for `Cc1cc(C(=O)N/N=C/c2ccc(N3CCOCC3)cc2)c(C)o1`, 14.1 µM [falling, partial curve].
